Experimental data published in US20240240143A1, “BIOENGINEERED DERMAL PAPILLA AND HAIR FOLLICLES AND RELATED PRODUCTS, METHODS AND APPLICATIONS” (The University of Hong Kong, priority 2021, published 2024).
At least one compound was matched to its structure with a doubt left.

What was measured:
[1] = tested on: Krt75; assay: Immunofluorescence staining of Krt75 in bioengineered hair follicle model; format: cell-based, human; conditions: 10 μM or 20 μM for 4 days; most intense at the proximal part of tubular structure
[2] = tested on: fibronectin; assay: Immunofluorescence staining of fibronectin in bioengineered hair follicle model; format: cell-based, human; conditions: 10 μM or 20 μM for 4 days, compared to no minoxidil
[3] = tested on: integrin α6; assay: Immunofluorescence staining of integrin α6 in bioengineered hair follicle model; format: cell-based, human; conditions: 10 μM and 20 μM for 4 days
[4] = tested on: β-catenin; assay: Immunofluorescence staining of β-catenin in bioengineered hair follicle model; format: cell-based, human; conditions: 5 μM, 10 μM, 20 μM for 4 days; more prominent at 10 μM and 20 μM
[5] = tested on: 2D cultured human DPCs; conditions: prior study; cited from earlier work

With `Nc1cc(N2CCCCC2)nc(N)[n+]1[O-]` [minoxidil] the “Expression of hair differentiation marker Krt75 compared to the control” value [1] was “higher expressions”, the “Fibronectin deposition in the collagen-DPC microsphere” value [2] was “Augmented deposition” and the “Integrin α6 expression at the junctional zone of collagen-DPC microsphere and HEKn component, compared to the control” value [3] was “enhanced expression”. The “β-catenin expression near the mesenchymal-epithelial junctional region” value [4] was “moderate augmentation” and the “β-catenin pathway in 2D cultured human DPCs” value [5] was “activation of β-catenin pathway”.
